Source: the supplement of paper PMC12067093, “Discovery and optimisation of a covalent ligand for TRIM25 and its application to targeted protein ubiquitination” (Chemical Science, 2025)
This is one part of the list.

Amino acid sequences for entries named in this document (tags omitted). A change or cut given only in a name is not applied to a line headed by its entry.
UniProt P05198, whole entry, looked up: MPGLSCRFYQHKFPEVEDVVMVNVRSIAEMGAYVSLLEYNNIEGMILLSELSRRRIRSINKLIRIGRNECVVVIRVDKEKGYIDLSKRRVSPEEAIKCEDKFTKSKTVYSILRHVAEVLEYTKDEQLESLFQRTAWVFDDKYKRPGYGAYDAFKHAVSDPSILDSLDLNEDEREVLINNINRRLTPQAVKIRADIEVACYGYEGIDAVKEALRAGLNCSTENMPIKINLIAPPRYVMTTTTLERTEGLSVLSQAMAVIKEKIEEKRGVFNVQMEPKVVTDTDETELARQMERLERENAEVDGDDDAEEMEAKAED
UniProt Q14152, whole entry, looked up: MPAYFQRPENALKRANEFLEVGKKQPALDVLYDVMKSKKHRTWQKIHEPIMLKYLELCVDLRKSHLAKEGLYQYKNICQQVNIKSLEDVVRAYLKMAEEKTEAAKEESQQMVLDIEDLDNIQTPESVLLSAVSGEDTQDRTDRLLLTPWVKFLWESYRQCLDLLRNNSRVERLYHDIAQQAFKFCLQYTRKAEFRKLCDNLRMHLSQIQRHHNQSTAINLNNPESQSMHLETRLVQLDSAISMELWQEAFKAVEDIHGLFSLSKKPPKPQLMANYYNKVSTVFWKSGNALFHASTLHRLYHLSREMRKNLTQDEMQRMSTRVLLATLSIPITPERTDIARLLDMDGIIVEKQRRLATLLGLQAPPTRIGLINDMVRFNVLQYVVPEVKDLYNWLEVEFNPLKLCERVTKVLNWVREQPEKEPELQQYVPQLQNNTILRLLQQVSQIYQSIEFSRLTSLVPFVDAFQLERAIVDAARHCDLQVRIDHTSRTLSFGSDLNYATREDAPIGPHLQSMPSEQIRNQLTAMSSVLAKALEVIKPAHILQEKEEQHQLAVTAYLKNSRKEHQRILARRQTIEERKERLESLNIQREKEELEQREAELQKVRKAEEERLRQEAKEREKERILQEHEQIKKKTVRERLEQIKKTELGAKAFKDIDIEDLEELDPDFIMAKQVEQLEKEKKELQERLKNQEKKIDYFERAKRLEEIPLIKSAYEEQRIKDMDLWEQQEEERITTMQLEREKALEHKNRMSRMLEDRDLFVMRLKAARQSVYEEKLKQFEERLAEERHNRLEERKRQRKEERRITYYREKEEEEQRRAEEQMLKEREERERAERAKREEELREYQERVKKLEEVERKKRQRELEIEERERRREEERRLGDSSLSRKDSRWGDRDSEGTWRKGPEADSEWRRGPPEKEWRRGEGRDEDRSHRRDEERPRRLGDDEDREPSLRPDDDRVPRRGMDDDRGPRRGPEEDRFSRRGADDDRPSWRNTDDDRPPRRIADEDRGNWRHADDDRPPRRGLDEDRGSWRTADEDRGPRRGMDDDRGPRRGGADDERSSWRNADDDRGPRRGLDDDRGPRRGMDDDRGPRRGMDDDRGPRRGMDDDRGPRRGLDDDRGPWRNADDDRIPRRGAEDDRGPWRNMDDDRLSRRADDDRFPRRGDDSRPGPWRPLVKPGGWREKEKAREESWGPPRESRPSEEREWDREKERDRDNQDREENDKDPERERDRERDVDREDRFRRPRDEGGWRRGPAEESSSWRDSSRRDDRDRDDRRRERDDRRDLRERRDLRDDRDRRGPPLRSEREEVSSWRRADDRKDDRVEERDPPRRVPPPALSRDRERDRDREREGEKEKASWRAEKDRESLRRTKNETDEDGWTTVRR
UniProt P68104, whole entry, looked up: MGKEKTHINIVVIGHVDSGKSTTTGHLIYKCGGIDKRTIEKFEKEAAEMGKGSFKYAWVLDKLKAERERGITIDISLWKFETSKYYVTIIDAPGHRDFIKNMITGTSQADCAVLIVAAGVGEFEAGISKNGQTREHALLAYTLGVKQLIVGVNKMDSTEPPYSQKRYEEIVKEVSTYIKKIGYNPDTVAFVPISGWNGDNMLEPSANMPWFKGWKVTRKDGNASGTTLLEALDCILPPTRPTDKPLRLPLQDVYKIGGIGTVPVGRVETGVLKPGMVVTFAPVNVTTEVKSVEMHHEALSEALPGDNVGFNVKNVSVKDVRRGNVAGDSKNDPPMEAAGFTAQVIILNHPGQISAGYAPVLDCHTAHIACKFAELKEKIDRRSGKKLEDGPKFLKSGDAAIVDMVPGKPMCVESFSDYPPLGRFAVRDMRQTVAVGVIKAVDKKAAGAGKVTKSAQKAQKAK
UniProt Q9H223: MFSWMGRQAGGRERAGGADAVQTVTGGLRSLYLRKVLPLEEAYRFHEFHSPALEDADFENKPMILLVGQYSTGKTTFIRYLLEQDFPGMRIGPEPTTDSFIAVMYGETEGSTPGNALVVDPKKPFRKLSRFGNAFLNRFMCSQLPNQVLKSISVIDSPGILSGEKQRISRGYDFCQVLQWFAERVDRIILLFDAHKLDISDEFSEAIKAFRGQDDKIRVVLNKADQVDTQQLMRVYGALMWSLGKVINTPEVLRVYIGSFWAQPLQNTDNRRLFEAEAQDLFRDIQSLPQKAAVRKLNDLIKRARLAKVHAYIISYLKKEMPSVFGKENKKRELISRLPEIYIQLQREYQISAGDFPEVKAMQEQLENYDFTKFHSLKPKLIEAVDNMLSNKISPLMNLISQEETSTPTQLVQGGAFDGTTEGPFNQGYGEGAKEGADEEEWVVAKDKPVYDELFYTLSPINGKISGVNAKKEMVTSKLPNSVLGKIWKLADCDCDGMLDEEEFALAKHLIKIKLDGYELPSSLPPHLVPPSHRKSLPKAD
UniProt Q15029: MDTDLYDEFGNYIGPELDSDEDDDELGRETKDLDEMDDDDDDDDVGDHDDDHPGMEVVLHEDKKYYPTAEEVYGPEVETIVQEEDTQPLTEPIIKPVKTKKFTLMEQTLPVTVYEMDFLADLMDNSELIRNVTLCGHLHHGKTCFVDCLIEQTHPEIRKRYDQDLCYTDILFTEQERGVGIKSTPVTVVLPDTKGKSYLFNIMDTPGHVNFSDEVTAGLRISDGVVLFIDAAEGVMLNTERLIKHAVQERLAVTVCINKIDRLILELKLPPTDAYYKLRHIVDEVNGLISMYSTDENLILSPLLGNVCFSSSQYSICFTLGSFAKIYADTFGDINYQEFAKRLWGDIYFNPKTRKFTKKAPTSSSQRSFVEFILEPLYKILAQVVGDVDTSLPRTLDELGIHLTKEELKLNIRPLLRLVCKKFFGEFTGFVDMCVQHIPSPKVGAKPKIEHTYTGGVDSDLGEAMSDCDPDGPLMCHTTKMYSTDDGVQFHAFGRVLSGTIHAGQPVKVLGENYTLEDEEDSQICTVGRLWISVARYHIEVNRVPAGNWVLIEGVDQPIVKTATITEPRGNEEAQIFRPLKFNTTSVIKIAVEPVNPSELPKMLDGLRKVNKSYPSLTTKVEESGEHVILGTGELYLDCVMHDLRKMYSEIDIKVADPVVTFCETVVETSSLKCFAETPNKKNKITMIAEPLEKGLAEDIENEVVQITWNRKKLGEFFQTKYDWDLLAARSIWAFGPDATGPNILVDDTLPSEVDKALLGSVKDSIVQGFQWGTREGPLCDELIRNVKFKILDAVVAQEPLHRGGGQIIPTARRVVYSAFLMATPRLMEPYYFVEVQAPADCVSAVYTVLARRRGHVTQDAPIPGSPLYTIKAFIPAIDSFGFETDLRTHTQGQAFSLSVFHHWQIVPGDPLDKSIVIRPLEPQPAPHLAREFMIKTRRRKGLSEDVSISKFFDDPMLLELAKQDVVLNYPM
UniProt Q16610: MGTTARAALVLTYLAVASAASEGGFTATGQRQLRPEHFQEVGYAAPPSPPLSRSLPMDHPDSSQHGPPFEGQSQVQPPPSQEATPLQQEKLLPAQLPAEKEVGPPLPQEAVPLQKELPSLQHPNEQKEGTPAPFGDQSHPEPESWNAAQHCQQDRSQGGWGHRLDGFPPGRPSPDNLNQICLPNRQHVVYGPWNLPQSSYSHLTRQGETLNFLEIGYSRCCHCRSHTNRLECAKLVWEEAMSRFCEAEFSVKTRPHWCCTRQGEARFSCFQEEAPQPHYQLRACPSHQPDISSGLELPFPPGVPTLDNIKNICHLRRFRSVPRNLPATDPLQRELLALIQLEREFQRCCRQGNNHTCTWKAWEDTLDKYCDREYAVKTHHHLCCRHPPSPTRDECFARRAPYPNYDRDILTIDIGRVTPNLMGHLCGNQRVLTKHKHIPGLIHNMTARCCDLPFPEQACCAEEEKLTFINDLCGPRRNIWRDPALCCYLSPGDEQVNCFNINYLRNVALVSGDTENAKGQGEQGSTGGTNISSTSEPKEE
UniProt Q9BV94: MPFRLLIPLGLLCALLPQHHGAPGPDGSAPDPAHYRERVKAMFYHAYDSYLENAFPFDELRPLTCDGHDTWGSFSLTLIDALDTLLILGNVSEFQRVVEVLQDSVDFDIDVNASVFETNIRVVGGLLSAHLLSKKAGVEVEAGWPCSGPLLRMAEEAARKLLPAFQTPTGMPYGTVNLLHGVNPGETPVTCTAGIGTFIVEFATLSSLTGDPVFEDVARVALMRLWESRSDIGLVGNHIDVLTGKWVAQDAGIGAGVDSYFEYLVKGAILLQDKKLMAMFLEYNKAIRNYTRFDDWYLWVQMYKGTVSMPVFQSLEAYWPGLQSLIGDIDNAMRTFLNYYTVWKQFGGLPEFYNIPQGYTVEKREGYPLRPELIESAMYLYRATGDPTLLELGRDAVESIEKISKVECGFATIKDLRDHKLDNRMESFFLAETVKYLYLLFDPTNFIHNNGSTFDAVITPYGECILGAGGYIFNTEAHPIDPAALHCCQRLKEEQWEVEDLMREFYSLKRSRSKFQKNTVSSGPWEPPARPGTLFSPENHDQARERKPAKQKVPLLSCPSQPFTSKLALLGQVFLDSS
UniProt Q9UHF1: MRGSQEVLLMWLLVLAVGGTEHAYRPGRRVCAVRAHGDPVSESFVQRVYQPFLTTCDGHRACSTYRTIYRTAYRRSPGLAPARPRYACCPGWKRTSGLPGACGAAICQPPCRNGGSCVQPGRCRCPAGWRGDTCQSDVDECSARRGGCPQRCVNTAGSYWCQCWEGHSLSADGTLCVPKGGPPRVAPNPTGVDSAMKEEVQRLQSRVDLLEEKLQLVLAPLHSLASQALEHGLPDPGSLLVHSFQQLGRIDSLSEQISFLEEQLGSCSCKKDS
UniProt Q13144, whole entry, looked up: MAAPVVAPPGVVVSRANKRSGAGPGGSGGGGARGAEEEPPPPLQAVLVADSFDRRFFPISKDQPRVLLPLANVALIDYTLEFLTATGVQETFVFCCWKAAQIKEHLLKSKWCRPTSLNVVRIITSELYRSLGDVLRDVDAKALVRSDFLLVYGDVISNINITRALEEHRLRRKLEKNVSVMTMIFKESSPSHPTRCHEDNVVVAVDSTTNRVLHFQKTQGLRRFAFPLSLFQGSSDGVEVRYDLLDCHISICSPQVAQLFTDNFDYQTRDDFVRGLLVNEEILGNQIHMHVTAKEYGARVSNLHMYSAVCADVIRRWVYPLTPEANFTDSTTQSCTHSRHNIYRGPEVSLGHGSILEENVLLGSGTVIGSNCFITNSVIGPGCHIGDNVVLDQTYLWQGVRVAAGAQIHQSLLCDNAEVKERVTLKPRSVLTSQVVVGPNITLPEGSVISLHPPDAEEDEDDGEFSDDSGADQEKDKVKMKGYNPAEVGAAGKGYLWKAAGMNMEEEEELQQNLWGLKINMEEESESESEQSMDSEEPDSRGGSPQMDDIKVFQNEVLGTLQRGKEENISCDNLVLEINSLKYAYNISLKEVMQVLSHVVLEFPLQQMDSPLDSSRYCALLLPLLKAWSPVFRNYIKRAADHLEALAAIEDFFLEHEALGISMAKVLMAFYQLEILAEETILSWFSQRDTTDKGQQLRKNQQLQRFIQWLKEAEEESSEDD
UniProt P20042, whole entry, looked up: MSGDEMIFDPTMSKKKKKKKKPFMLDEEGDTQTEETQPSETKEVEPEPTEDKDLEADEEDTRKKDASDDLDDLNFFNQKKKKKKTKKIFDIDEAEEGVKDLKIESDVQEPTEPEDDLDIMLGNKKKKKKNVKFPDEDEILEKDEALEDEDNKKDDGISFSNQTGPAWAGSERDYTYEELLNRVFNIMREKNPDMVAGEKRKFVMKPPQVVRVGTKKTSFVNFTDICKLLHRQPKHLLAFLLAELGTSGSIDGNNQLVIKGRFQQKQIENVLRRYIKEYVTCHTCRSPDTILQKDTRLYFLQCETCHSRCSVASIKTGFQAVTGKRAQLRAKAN
UniProt P26641, whole entry, looked up: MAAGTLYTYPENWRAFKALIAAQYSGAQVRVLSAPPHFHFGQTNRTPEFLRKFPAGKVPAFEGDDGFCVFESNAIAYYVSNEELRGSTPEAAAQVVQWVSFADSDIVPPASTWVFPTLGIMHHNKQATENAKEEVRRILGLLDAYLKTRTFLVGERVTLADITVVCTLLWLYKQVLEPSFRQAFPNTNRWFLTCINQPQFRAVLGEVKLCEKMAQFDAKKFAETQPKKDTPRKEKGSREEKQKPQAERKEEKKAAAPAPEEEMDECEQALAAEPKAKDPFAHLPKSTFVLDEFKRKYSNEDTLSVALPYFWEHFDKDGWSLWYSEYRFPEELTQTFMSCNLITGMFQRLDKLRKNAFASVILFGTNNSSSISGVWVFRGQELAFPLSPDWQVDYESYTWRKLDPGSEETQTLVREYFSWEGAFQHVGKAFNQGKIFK

Compound: Cc1cc(ccc1-c1ccccc1)C(=O)N1CCCN(CC1)C(=O)CCl [compound 10]
Assay: probe-labelled cysteine peptide fold change vs DMSO (competition) (log2 fold change); higher = less target engagement (more negative = stronger competition)
Settings: THP-1, incubation time: 4 h
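Note: competitive profiling in live THP-1 cells: cysteine peptides tagged with an iodoacetamide desthiobiotin (IA-DTB) probe, intensity after compound treatment relative to DMSO-treated cells.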

Target	probe-labelled cysteine peptide fold change (10 µM)	probe-labelled cysteine peptide fold change (50 µM)
EIF2S1_P05198_70_NECVVVIRVDK (UniProt P05198)	-0.0302	-0.409
EIF3A_Q14152_198_KLCDNLR (UniProt Q14152)	0.0465	-0.109
EHMT1_Q9H9B1_627_VNNASYCPHCGEESSK (UniProt Q9H9B1)	0.115	0.178
EEF1A1_P68104_234_KDGNASGTTLLEALDCILPPTR (UniProt P68104)	-0.0469	-0.0163
EHD4_Q9H223_493+495_LADCDCDGMLDEEEFALAK (UniProt Q9H223)	0.00822	-0.434
EFTUD2_Q15029_166_YDQDLCYTDILFTEQER (UniProt Q15029)	0.0874	-0.00969
ECM1_Q16610_151_EGTPAPFGDQSHPEPESWNAAQHCQQDR (UniProt Q16610)	-0.414	-0.242
EDEM2_Q9BV94_408_VECGFATIK (UniProt Q9BV94)	-0.169	-0.0204
EGFL7_Q9UHF1_148_RGGCPQR (UniProt Q9UHF1)	-0.109	-0.151
EFTUD2_Q15029_148_TCFVDCLIEQTHPEIR (UniProt Q15029)	0.169	-0.0843
EFL1_Q7Z2Z2_646_LLNQADPCVQILIQETGEHVLVTAGEVHLQR (UniProt Q7Z2Z2)	0.119	0.0963
EIF2B5_Q13144_196_CHEDNVVVAVDSTTNR (UniProt Q13144)	-0.0717	-0.0586
EIF2S2_P20042_226_TSFVNFTDICK (UniProt P20042)	-0.0131	-0.0563
EEF1G_P26641_339_FPEELTQTFMSCNLITGMFQR (UniProt P26641)	0.391	0.751

Quoted from the listing.
Value of EIF2S2_P20042_226_TSFVNFTDICK (UniProt P20042) under probe-labelled cysteine peptide fold change (10 µM): -0.0131
Value of EIF2S1_P05198_70_NECVVVIRVDK (UniProt P05198) under probe-labelled cysteine peptide fold change (50 µM): -0.409
